# Screening data

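Genome-wide siRNA knockdown in TC32 Ewing sarcoma cells, comparing luciferase light from an NR0B1-promoter reporter with a CMV-promoter reporter 48 hours after transfection. Each siRNA was applied at 20 nM. A z-score of the log NR0B1-over-CMV signal, less the median of siRNAs with the same seed; more negative means a stronger specific loss of the NR0B1 reporter.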

This is part of the screen; most of the strongest results are not listed here. Sequences are the guide (antisense) strand, without overhang.

| strand | gene | seed-corrected z-score |
|---|---|---|
| `UCCCAGGACAUGUCGAUGC` | PUF60 | 0.9375 |
| `UCUGGGAUGAUCCUUUCUG` | RINL | 0.0258 |
| `UUUGAAGGAAGAGCACUGU` | ZNF3 | 1.738 |
| `AACAGUCUCAGGGCGGUUU` | CCDC71 | 0.9791 |
| `UCCGAGUUCAGAGGUUUCC` | RNF213 | -0.2398 |
| `AUUUGAUCUGGAGAGGUUG` | BCL10 | -1.372 |
| `UAUGAUUUGGGAAAGGCUG` | CFAP46 | 0.4874 |
| `UGAACCACAAUGUCGUCGU` | NFKBIB | -0.08297 |
| `UCAGCGAUCGCUUCUUAGC` | SLC22A14 | -0.379 |
| `UGUCCAUUAAGGUCUCAGC` | CRBN | -0.09651 |
| `AGCGUAAUCACCUUGGACU` | CPSF1 | -0.3963 |
| `ACACUAUCAAGCAACAAUC` | CCNC | 2.004 |
| `AAAUUUCUCCCAACGAUGU` | ANKRD45 | -0.06372 |
| `UGAUGGAACUCACUGACGG` | PAX3 | -0.2668 |
| `UACUUUGCGAUCAUUUAGG` | PABPC1 | -1.381 |
| `UUCUUUUUGACCGAGUCCU` | KIAA1143 | -0.2913 |
| `UCCCUUGACUCCAAGAUGC` | RGS12 | 0.3057 |
| `AAACAUGUUCCAAUUACCC` | RCN3 | 0.1159 |
| `AUAGAGGCUGUGGAAAUUG` | ADCY4 | 0.9257 |
| `UCUGGUAGUACCACUCUUC` | BACE2 | 0.3589 |
| `AUCUGGACCCGAGACGUAG` | HOXA11 | 1.215 |
| `UUUGGUAGAAGUUCUCGCG` | TNC | -0.192 |
| `UAUCCUUCGCGUACUGACG` | RPS29 | 2.154 |
| `UCUGUUGAGACUGUAUGAG` | GTF2A2 | -0.1062 |
| `UUAACAGUAUGGUUGUGCG` | CCL28 | 0.2572 |
| `UCGCUUCAUGGAACCUUCC` | WNT3A | 0.2287 |
| `AUAGUGUCCACUGAUUGGG` | MCM6 | 0.7293 |
| `CAUUUCCACUUGCAAGGCC` | CROCC2 | -0.7991 |
| `UUGGUGUAGAUGAGGGAGA` | GSTP1 | -0.619 |
| `UCAGGUUGGAGGUUAUAGC` | RGL2 | 0.1629 |
| `UUUGAUAUUGAACAAACUC` | IGIP | 0.008049 |
| `UGAUGUACGGAGCACACGC` | LINC00200 | -0.12 |
| `UAUAGACUCAUCAAGAUUC` | KIF6 | -0.1373 |
| `UGACGUCCUCUGUAAUGCG` | KYNUP2 | 0.5158 |
| `UUUUAGGCUGUGGUAAUCC` | BUB1 | -1.554 |
| `UAUUCGUUCUCCAAAAUAC` | C4orf32 | 0.7139 |
| `UCAGAGACAAAUUAGUACC` | MTFR1 | -0.03296 |
| `UGAGCUGGUAAUAGGACUC` | SRM | 0.01141 |
| `UUGGUGAAGGGCACAGGCA` | SLC9A3R1 | -1.202 |
| `AACUUGAUGAUAUCUUCUG` | ABLIM1 | -0.5186 |
| `UUCCGGAUCAACGAUGUUU` | CREG2 | 0.3091 |
| `CGAGGGCUUACACUUGCUG` | LYPD2 | -0.5381 |
| `UUGUUUAUCACAGCACCCA` | SLC1A3 | -0.03123 |
| `UACAUUCGGAACAAUAAGC` | AP3B1 | 0.9396 |
| `AUAGUAGUCAGCAUAGAAG` | SLC22A23 | -0.1485 |
| `UAUCUAGACCUUCAAAUAC` | CPEB2-AS1 | 0.7927 |
| `AUUGGUGUUUGCUAGAACC` | CALM3 | 0.1769 |
| `UCUAGGCACACGGUGAAGA` | CRAT | -1.367 |
| `UUGGUUUUGGAGCUGAAGC` | ZNF467 | -1.426 |
| `UUAGUGCUUGGUUGUCUGU` | YDJC | 0.1188 |
| `UCACAUAUAUGUGGGCCUC` | OPALIN | -0.01228 |
| `UUUUUAUUCCCAAAGGCUC` | PTGER1 | -0.189 |
| `UAGUUGUAGGGCGUGGCCU` | NDUFA3 | -0.1355 |
| `UUUGAUUGCAUCCUUACAG` | DSTNP4 | 0.3283 |
| `UCUGUAGCCCAUCUUGACC` | PUS7 | 0.5042 |
| `UUCCCGAUCAGCACAGUGA` | TAZ | -0.4073 |
| `AAAUUAUUGAUUCCCACUG` | LOC442293 | -1.42 |
| `AUCAUGUUGAAAGCCUCCU` | MYL9 | 0.9245 |
| `CAUACUCCAGGGCACAUUG` | LOC126860 | -0.04193 |
| `AGUUGUACUCAGUUUGGGC` | PLA2G10 | 0.3686 |
| `UAAUGCUCUGGUAUCAUGC` | CD58 | 0.8153 |
| `UUCCUUAGCUGUUACGUGC` | EIF2B5 | 0.6912 |
| `UCAGAGCUAACCCAAGACG` | HN1 | -0.08936 |
| `UGAAGUAGCGGAACCAGGC` | ALDH3B1 | -0.08244 |
| `UCUGGAACGAGUUGACACC` | DPYSL5 | 1.213 |
| `UAGGUAUCGAAGUUGGGUC` | TLR8 | 0.8456 |
| `UAACGGUCACUUACGAGGA` | CHST14 | -0.188 |
| `UUCAAGAUUGUUGUUAUUC` | TAB3 | 0.6785 |
| `AUAGAUGUAACUGAUCGUG` | FER | -0.2907 |
| `UUAUCAUUCCGUACAAACG` | PPP2R3B | -0.2117 |
| `UUAGGAUCAAGGUCUGUGC` | NUTM2G | -0.4732 |
| `AGAUGUCUGAGAUAAACUG` | CD9 | -0.3004 |
| `UCUGAUCUAUCUGAGAUCG` | ZHX2 | 0.7856 |

Repeated from the top, 7 entries:

strand	gene	seed-corrected z-score
UCCCAGGACAUGUCGAUGC	PUF60	0.9375
UCUGGGAUGAUCCUUUCUG	RINL	0.0258
UUUGAAGGAAGAGCACUGU	ZNF3	1.738
AACAGUCUCAGGGCGGUUU	CCDC71	0.9791
UCCGAGUUCAGAGGUUUCC	RNF213	-0.2398
AUUUGAUCUGGAGAGGUUG	BCL10	-1.372
UAUGAUUUGGGAAAGGCUG	CFAP46	0.4874

Source: PubChem BioAssay AID1159506 (NCATS, 2015).